Laboratory results: article PMC9186391
These are yes or no findings as the source states them, for the method shown. Binding seen in cells or lysates may run through a third protein. Some binding calls cover weakened binding; strength is not graded here. Sequences can lack the tags named with a protein.

The chains behind the UniProt entries cited, without tags or fusion partners.
UniProt Q13838: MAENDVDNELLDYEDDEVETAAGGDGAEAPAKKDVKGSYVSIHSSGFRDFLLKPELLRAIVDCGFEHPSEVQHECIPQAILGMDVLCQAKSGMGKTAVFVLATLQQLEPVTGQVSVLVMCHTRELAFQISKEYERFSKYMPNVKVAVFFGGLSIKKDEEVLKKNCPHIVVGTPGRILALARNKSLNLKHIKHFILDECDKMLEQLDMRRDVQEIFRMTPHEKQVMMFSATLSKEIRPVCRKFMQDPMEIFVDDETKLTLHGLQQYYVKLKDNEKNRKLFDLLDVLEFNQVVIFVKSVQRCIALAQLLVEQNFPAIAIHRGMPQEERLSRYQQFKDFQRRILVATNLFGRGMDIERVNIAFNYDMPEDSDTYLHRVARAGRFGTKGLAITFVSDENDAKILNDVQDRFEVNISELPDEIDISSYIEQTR

Tests used:
FLAG-HA-tagged RBM33 = molecular target: T1, FLAG-HA-tagged RBM33 (UniProt Q96EV2); test: co-IP; coimmunoprecipitation of endogenous proteins with FH-RBM33, detected by Western blot
T1 sequence: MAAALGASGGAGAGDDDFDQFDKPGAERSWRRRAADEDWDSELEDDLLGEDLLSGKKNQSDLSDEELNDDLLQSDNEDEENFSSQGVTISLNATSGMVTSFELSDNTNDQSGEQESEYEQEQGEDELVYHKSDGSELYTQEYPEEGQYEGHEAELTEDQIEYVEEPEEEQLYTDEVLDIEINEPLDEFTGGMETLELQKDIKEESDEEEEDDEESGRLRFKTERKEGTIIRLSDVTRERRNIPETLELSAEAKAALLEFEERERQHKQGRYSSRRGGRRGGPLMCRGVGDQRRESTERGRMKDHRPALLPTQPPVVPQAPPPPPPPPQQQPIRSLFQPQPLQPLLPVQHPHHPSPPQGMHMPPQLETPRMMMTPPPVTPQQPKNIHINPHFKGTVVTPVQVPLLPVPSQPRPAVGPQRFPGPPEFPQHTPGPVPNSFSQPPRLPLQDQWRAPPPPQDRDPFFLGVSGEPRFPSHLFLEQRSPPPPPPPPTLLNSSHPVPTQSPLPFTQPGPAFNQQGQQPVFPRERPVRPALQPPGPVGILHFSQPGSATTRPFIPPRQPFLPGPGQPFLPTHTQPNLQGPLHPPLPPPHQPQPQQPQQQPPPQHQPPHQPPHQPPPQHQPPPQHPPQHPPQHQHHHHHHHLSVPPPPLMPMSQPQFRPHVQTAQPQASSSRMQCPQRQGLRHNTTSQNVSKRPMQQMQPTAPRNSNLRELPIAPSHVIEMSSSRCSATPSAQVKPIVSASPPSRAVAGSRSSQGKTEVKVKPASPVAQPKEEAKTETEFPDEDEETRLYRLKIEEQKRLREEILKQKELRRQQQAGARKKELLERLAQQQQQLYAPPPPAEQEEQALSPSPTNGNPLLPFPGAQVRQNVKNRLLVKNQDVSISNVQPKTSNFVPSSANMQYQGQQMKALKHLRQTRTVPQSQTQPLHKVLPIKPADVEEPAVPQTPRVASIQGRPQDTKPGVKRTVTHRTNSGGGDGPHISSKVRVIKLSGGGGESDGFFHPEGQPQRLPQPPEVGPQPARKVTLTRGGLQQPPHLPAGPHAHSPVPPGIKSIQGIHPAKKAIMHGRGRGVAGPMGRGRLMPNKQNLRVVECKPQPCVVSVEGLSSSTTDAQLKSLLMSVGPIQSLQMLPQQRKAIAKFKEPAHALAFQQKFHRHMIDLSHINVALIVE

[1] = molecular target: T2, in vitro translated FLAG-HA-tagged RBM33 (UniProt Q96EV2); test: co-IP; coimmunoprecipitation of in vitro translated FH-RBM33 and V5-tagged proteins, detected by Western blot; FH-GFP as negative control
T2 sequence: T1 sequence

Row | Substance | binding (FLAG-HA-tagged RBM33) | binding [1]
1 | UAP56 (from UniProt Q13838 1-428) | binds | –
2 | V5-tagged UAP56, in vitro translated (from UniProt Q13838 1-428) | – | binds
